A short description of the assay: qHTS Assay for Lipid Storage Modulators in Drosophila S3 Cells.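 As to cell number change: cells counted by Cell Tracker Red CMTPX staining in the red channel.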 Particulars: BODIPY lipid droplet fluorescence, 18-24 h; for cell number change: measured here: cell count max response, cells fed with added oleic acid. The gist of the method: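 Drosophila S3 cells got compounds at several concentrations plus oleic acid (400 uM solution). Laser-scanning cytometry with 488 nm excitation read lipid droplets at 500-530 nm and cells at 575-640 nm. Percent activity was relative to 20 uM Triacsin C.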

Setting [1] is: measured here: cell number channel AC50, cells fed with added oleic acid.
Setting [2] is: measured here: lipid fluorescence (Fed channel) AC50, cells fed with added oleic acid.

Molecules are shown by their SMILES. This is one part of the list. Further columns of the screen follow, without active or inactive calls. Compounds called inactive in the main read-out are mostly missing here. Words in brackets tell the shape of the fitted curve; partial curves, single points and poor fits give uncertain potencies.

Broadly, the AC50 is the midpoint of the concentration-response curve, whichever way the signal moves. Lower therefore signals greater potency. On to `O=C(COc1cc(Cl)ccc1Cl)Nc1nnc(C2CC2)s1`, for which the cell number change is 31.7%. Moreover, under setting [1], the AC50 is 14.6 µM [rising, partial curve, poor fit]. The concentration at half-maximal activity (AC50) under setting [2] was 8.2 µM [rising, partial curve, poor fit].

For `COC(=O)c1c(C)oc(C)c1S(=O)(=O)NCc1ccc(Cl)cc1Cl`, the concentration at half-maximal activity (AC50) under setting [2] is 5.8 µM [rising, single point]. On to `COc1ccc(C(=O)O)cc1NC(=S)NC(=O)/C=C/c1ccc(C(C)C)cc1`, for which the cell number change is -28.7%. Besides, the AC50 under setting [2] was 23.1 µM [falling, partial curve]. For the compound `COc1ccc(OC)c(NC(=O)C2CCN(S(=O)(=O)c3cccs3)CC2)c1`, the cell number change is -120%. For the same compound, under setting [1], the AC50 was 16.4 µM [falling, partial curve]. Further, under setting [2], the AC50 was 8.2 µM [falling, partial curve]. Consider `COc1cc(/C=C/C(=O)c2ccc(C)c([N+](=O)[O-])c2)cc(OC)c1O`, for which the cell number change is -31.2%. In addition, the half-maximal activity concentration (AC50) under setting [1] was 16.4 µM [falling, partial curve]. Further, the concentration at half-maximal activity (AC50) under setting [2] is 20.6 µM [falling, partial curve]. Consider `CC/C(C)=N/NC(=S)NCc1ccco1`, for which the concentration at half-maximal activity (AC50) under setting [2] is 0.651 µM [rising, single point]. With `CCC/C(O)=C1\C(=O)CC(C)(C)CC1=Nc1ccc(OC)cc1OC`, the cell number change was -3.62%.

As to `COc1ccc(CNC(=O)CC23CC4CC(CC(C4)C2)C3)cc1OC`, the cell number change is -11.1%. Consider `O=C(O)c1cccc(-n2cccc2/C=C2\NC(=O)N(Cc3ccc(F)cc3)C2=O)c1`, for which the cell number change amounted to 1.59%. Further, under setting [1], the AC50 is 1.84 µM [falling, partial curve]. In the case of `COC(=O)C1CSC(C(=O)OC)N1C(=O)CN1CC(C)OC(C)C1` (centres undefined), the cell number change was -77.8%. Further, the concentration at half-maximal activity (AC50) under setting [1] is 5.8 µM [falling, full curve]. Further, the half-maximal activity concentration (AC50) under setting [2] was 20.6 µM [falling, single point]. As to `COc1ccc(OCC(=O)NCCc2ccc(S(N)(=O)=O)cc2)cc1`, the cell number change turned out to be 11.6%. Also, the half-maximal activity concentration (AC50) under setting [2] was 6.51 µM [falling, single point]. Take `CC1CCCCN1S(=O)(=O)c1ccc(C(=O)Nc2nnc(C3=COCCO3)o2)cc1` (centres undefined): the cell number change was -17.1%. Moreover, under setting [2], the AC50 is 29.1 µM [falling, single point]. Take `O=C(O)c1ccc(NCc2nc3ccccc3n2CCOc2ccccc2Cl)cc1`: the cell number change was -13.7%. The AC50 under setting [1] was 6.51 µM [falling, single point]. In addition, under setting [2], the concentration at half-maximal activity (AC50) was 2.06 µM [falling, partial curve, poor fit]. Take `Cc1cccc(/C=N/n2c(C)nnc2C)c1`: the cell number change was 13.7%. Moreover, the half-maximal activity concentration (AC50) under setting [2] is 29.1 µM [falling, single point]. `Cc1nc(SCC(=O)Nc2ccccc2Cl)c2c(C)c(C)sc2n1`: the cell number change is -4.9%. Further, the concentration at half-maximal activity (AC50) under setting [1] is 2.06 µM [rising, partial curve]. Under setting [2], the half-maximal activity concentration (AC50) was 13 µM [falling, partial curve, poor fit]. Turning to `Cc1ccc(Nc2nc(CSc3nnc(-c4cccs4)o3)cs2)cc1`, the AC50 is, setting by setting: under setting [1], 2.06 µM [rising, partial curve]; under setting [2], 2.06 µM [rising, partial curve]. As for `CC(C)(O[C@@H]1O[C@H](CO)[C@@H](O)[C@H](O)[C@H]1O)[C@@H]1CC=C(C(=O)O)CC1`, the cell number change amounted to 6.98%. For the same compound, under setting [2], the AC50 was 29.1 µM [rising, single point]. Regarding `COCCn1c(C)cc(C(=O)COC(=O)c2ccc(-n3nc(C)cc3C)cc2)c1C`, the cell number change is 5.28%. For the same compound, the AC50 under setting [2] was 0.092 µM [falling, full curve, poor fit]. Turning to `COc1cc2c(cc1OC)C(C)N(C(=O)c1c(C)noc1C)CC2` (centres undefined), the cell number change was 19.9%. As to `Cc1ccccc1OCC(=O)N/N=C1\CC(=O)CC(C)(C)C1`, the cell number change is 6.45%. For the compound `Cc1[nH]c(=O)nc(SCc2ccc(Cl)c(Cl)c2)c1C#N`, the cell number change is 24.6%. Further, under setting [1], the half-maximal activity concentration (AC50) was 4.11 µM [rising, full curve, poor fit]. With `COc1cc(C(=O)OCC(=O)N2CCN(C(C)=O)CC2)ccc1OCC(C)C`, the cell number change is -2.03%. In the case of `Cc1cccnc1NC(=O)c1ccc([N+](=O)[O-])o1`, the cell number change was -22.8%. Besides, under setting [2], the AC50 is 11.6 µM [falling, partial curve].

In the case of `Cc1[nH]n(C2=NCCS2)c(=O)c1N=Nc1ccccc1`, the AC50 under setting [1] was 5.17 µM [rising, single point]. On to `Cc1c(CCOC(=O)c2ccccc2)sc[n+]1CC(=O)c1ccc(Br)cc1`, for which the cell number change was 19%. In addition, the AC50 under setting [2] is 6.51 µM [falling, single point].

As for `COc1cc(OC)cc(C(=O)NCC(=O)NC(C)CCc2ccccc2)c1` (centres undefined), the cell number change came to 4.17%. For the same compound, the half-maximal activity concentration (AC50) under setting [2] was 0.58 µM [rising, single point]. For the compound `Cc1ccc(COc2cccc(/C=N/NC(=O)c3nnn(-c4nonc4N)c3C)c2)cc1`, the AC50 under setting [2] is 29.1 µM [falling, single point].

On to `Cc1ccc(N2C(=O)N(CC(=O)Nc3ccc(C)cc3Cl)C(=O)C2C)cc1` (centres undefined), for which the cell number change was 38.2%. Further, the concentration at half-maximal activity (AC50) under setting [1] is 3.66 µM [rising, full curve]. Also, the half-maximal activity concentration (AC50) under setting [2] is 3.26 µM [rising, full curve].

On to `COC(=O)C1C(=O)NCC1c1ccc(OC)cc1` (centres undefined), for which the cell number change stood at 23.9%. The AC50 under setting [2] was 29.1 µM [falling, single point]. For the compound `CC(=O)Nc1nnc(COc2ccccc2)s1`, the AC50 under setting [2] was 0.231 µM [rising, partial curve, poor fit].

With `CC(C)CCN(C(=O)CNC(=O)c1cccs1)C(C(=O)NC1CCCCC1)c1cccnc1` (centres undefined), under setting [2], the concentration at half-maximal activity (AC50) was 20.6 µM [rising, partial curve, poor fit]. In the case of `O=C(COC(=O)c1ccccc1)Nc1cccc(S(=O)(=O)N2CCOCC2)c1`, the cell number change was determined as 6.15%. For the same compound, the concentration at half-maximal activity (AC50) under setting [2] was 16.4 µM [rising, single point]. On to `CC(=O)C1=C(O)C(=O)N(Cc2ccccc2)C1c1cccc([N+](=O)[O-])c1` (centres undefined), for which the cell number change came to 20.6%. The AC50 under setting [2] was 0.146 µM [rising, full curve, poor fit]. With `CS(=O)(=O)c1ccc(C(=O)Nc2ccccc2N2CCOCC2)c(Cl)c1`, the cell number change was determined as 13.2%. Further, the half-maximal activity concentration (AC50) under setting [1] was 4.11 µM [rising, single point]. In the case of `O=C(CCc1ccccc1)Nc1nc2c(F)cc(F)cc2s1`, the AC50 under setting [1] is 0.00461 µM [rising, full curve, poor fit]. Turning to `N#Cc1c(NC(=O)CCC(=O)O)sc2c1CCCC2`, the cell number change was found to be 14.4%. Still for that read-out and setting: in the case of `CCC(NC(=O)c1cc(COc2ccc(Cl)cc2OC)on1)c1ccncc1` (centres undefined) it was 17.6%. Regarding `Cc1ccc(C)c(NC(=O)CSc2nnc(Cc3cccn3C)n2-c2ccc(F)cc2)c1`, the cell number change worked out at 15.4%. Moreover, the half-maximal activity concentration (AC50) under setting [2] is 1.84 µM [rising, partial curve, poor fit].
